In the supplement of paper PMC8728848:
This is one part of the list.

Experiments:
Assay in all cases: glycan array binding signal (z-score within array); higher = stronger binding
Conditions in all cases: glycan notation: IUPAC condensed, linker removed
[1] = biological target: GlcNAc(b1-3)Gal(b1-4)GlcNAc(b1-3)Gal(b1-4)GlcNAc(b1-2)Man(a1-3)[GlcNAc(b1-3)Gal(b1-4)GlcNAc(b1-3)Gal(b1-4)GlcNAc(b1-2)Man(a1-6)]Man(b1-4)GlcNAc(b1-4)GlcNAc
In short: (§1)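 Glycan array binding is given as a within-array Z-score, which can be read as non-binding when negative. The arrays, 3228 of them, came from the Consortium for Functional Glycomics database and were retained only where the protein sequence was available. Z-scores were averaged across arrays of the same protein sequence at different concentrations or buffers and across linkers.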

[2] = biological target: GlcNAc(b1-3)Gal(b1-4)GlcNAc(b1-3)Gal(b1-4)GlcNAc(b1-2)Man(a1-3)[GlcNAc(b1-3)Gal(b1-4)GlcNAc(b1-3)Gal(b1-4)GlcNAc(b1-2)Man(a1-6)]Man(b1-4)GlcNAc(b1-4)[Fuc(a1-6)]GlcNAc
In short: as §1

[3] = biological target: GlcNAc(b1-3)Gal(b1-4)GlcNAc(b1-3)Gal(b1-4)GlcNAc(b1-2)[GlcNAc(b1-3)Gal(b1-4)GlcNAc(b1-3)Gal(b1-4)GlcNAc(b1-6)]Man(a1-6)[GlcNAc(b1-3)Gal(b1-4)GlcNAc(b1-3)Gal(b1-4)GlcNAc(b1-2)Man(a1-3)]Man(b1-4)GlcNAc(b1-4)[Fuc(a1-6)]GlcNAc
In short: as §1

[4] = biological target: GlcNAc(b1-3)Gal(b1-4)GlcNAc(b1-3)Gal(b1-4)GlcNAc(b1-3)Gal(b1-4)GlcNAc(b1-2)Man(a1-3)[GlcNAc(b1-3)Gal(b1-4)GlcNAc(b1-3)Gal(b1-4)GlcNAc(b1-3)Gal(b1-4)GlcNAc(b1-2)Man(a1-6)]Man(b1-4)GlcNAc(b1-4)GlcNAc
In short: as §1

[5] = biological target: GlcNAc(b1-3)Gal(b1-4)GlcNAc(b1-3)Gal(b1-4)GlcNAc(b1-3)Gal(b1-4)GlcNAc(b1-2)Man(a1-3)[GlcNAc(b1-3)Gal(b1-4)GlcNAc(b1-3)Gal(b1-4)GlcNAc(b1-3)Gal(b1-4)GlcNAc(b1-2)Man(a1-6)]Man(b1-4)GlcNAc(b1-4)[Fuc(a1-6)]GlcNAc
In short: as §1

[6] = biological target: GlcNAc(b1-3)Gal(b1-4)GlcNAc(b1-3)Gal(b1-4)GlcNAc(b1-3)Gal(b1-4)GlcNAc(b1-2)[GlcNAc(b1-3)Gal(b1-4)GlcNAc(b1-3)Gal(b1-4)GlcNAc(b1-3)Gal(b1-4)GlcNAc(b1-6)]Man(a1-6)[GlcNAc(b1-3)Gal(b1-4)GlcNAc(b1-3)Gal(b1-4)GlcNAc(b1-3)Gal(b1-4)GlcNAc(b1-2)Man(a1-3)]Man(b1-4)GlcNAc(b1-4)[Fuc(a1-6)]GlcNAc
In short: as §1

[7] = biological target: GlcNAc(b1-3)Gal(b1-4)GlcNAc(b1-3)Gal(b1-4)GlcNAc(b1-3)Gal(b1-4)GlcNAc(b1-3)Gal(b1-4)GlcNAc(b1-2)Man(a1-3)[GlcNAc(b1-3)Gal(b1-4)GlcNAc(b1-3)Gal(b1-4)GlcNAc(b1-3)Gal(b1-4)GlcNAc(b1-3)Gal(b1-4)GlcNAc(b1-2)Man(a1-6)]Man(b1-4)GlcNAc(b1-4)GlcNAc
In short: as §1

[8] = biological target: GlcNAc(b1-3)Gal(b1-4)GlcNAc(b1-3)Gal(b1-4)GlcNAc(b1-3)Gal(b1-4)GlcNAc(b1-3)Gal(b1-4)GlcNAc(b1-2)Man(a1-3)[GlcNAc(b1-3)Gal(b1-4)GlcNAc(b1-3)Gal(b1-4)GlcNAc(b1-3)Gal(b1-4)GlcNAc(b1-3)Gal(b1-4)GlcNAc(b1-2)Man(a1-6)]Man(b1-4)GlcNAc(b1-4)[Fuc(a1-6)]GlcNAc
In short: as §1

[9] = biological target: GlcNAc(b1-3)Gal(b1-4)GlcNAc(b1-3)Gal(b1-4)GlcNAc(b1-3)Gal(b1-4)GlcNAc(b1-3)Gal(b1-4)GlcNAc(b1-2)[GlcNAc(b1-3)Gal(b1-4)GlcNAc(b1-3)Gal(b1-4)GlcNAc(b1-3)Gal(b1-4)GlcNAc(b1-3)Gal(b1-4)GlcNAc(b1-6)]Man(a1-6)[GlcNAc(b1-3)Gal(b1-4)GlcNAc(b1-3)Gal(b1-4)GlcNAc(b1-3)Gal(b1-4)GlcNAc(b1-3)Gal(b1-4)GlcNAc(b1-2)Man(a1-3)]Man(b1-4)GlcNAc(b1-4)[Fuc(a1-6)]GlcNAc
In short: as §1

[10] = biological target: GlcNAc(b1-3)Gal(b1-4)GlcNAc(b1-3)Gal(b1-4)GlcNAc(b1-3)GalNAc
In short: as §1

[11] = biological target: GlcNAc(b1-3)Gal(b1-4)GlcNAc(b1-3)GalNAc
In short: as §1

[12] = biological target: GlcNAc(b1-3)Gal(b1-4)GlcNAc(b1-3)[GlcNAc(b1-3)Gal(b1-4)GlcNAc(b1-3)]GalNAc
In short: as §1

[13] = biological target: GlcNAc(b1-3)Gal(b1-4)GlcNAc(b1-6)[Gal(b1-3)]GalNAc
In short: as §1

[14] = biological target: GlcNAc(b1-3)Gal(b1-4)GlcNAc(b1-6)[GlcNAc(b1-3)Gal(b1-3)]GalNAc
In short: as §1

[15] = biological target: GlcNAc(b1-3)Gal(b1-4)GlcNAc(b1-6)[GlcNAc(b1-3)]Gal(b1-4)GlcNAc
In short: as §1

[16] = biological target: GlcNAc(b1-3)GalNAc
In short: as §1

[17] = biological target: GlcNAc(b1-3)Man
In short: as §1

[18] = biological target: GlcNAc(b1-3)[GlcNAc(b1-4)][GlcNAc(b1-6)]GlcNAc
In short: as §1

[19] = biological target: GlcNAc(b1-3)[GlcNAc(b1-6)]Gal(b1-4)GlcNAc
In short: as §1

[20] = biological target: GlcNAc(b1-3)[GlcNAc(b1-6)]GalNAc
In short: as §1

[21] = biological target: GlcNAc(b1-4)Gal(b1-4)GlcNAc
In short: as §1

[22] = biological target: GlcNAc(b1-4)GlcNAc
In short: as §1

[23] = biological target: GlcNAc(b1-4)GlcNAc(b1-4)GlcNAc
In short: as §1

[24] = biological target: GlcNAc(b1-4)GlcNAc(b1-4)GlcNAc(b1-4)GlcNAc(b1-4)GlcNAc
In short: as §1

[25] = biological target: GlcNAc(b1-4)GlcNAc(b1-4)GlcNAc(b1-4)GlcNAc(b1-4)GlcNAc(b1-4)GlcNAc
In short: as §1

[26] = biological target: GlcNAc(b1-4)[GlcNAc(b1-6)]GalNAc
In short: as §1

[27] = biological target: GlcNAc(b1-6)Gal(b1-4)GlcNAc
In short: as §1

[28] = biological target: GlcNAc(b1-6)GalNAc
In short: as §1

[29] = biological target: GlcNAc6S(b1-3)Gal(b1-4)GlcNAc
In short: as §1

[30] = biological target: Kdn(a2-3)Gal(b1-3)GalNAc
In short: as §1

[31] = biological target: Kdn(a2-3)Gal(b1-3)GlcNAc
In short: as §1

[32] = biological target: Kdn(a2-3)Gal(b1-4)Glc
In short: as §1

[33] = biological target: Kdn(a2-3)Gal(b1-4)GlcNAc
In short: as §1

[34] = biological target: Kdn(a2-3)Gal(b1-4)[Fuc(a1-3)]GlcNAc
In short: as §1

[35] = biological target: Kdn(a2-6)Gal(b1-4)GlcNAc
In short: as §1

[36] = biological target: Man(a1-2)Man(a1-2)Man(a1-3)Man
In short: as §1

[37] = biological target: Man(a1-2)Man(a1-2)Man(a1-6)[Man(a1-3)]Man
In short: as §1

[38] = biological target: Man(a1-2)Man(a1-3)Man
In short: as §1

B1: Epa2 (Candida glabrata) (protein)
chain: MGSSHHHHHHSSGLVPRGSHMASSKDPTSFPMGCSPQVLKTQPGLAVKLYSYGHPVPGCAYNTYQYPDFPRSGYKKERKLADITGVNGRIDIDLKPNDPCRVLSGNLPSNYNYQNTLTYTNFTMILYGYFQPKVTGYHTFNLEADDLLFMNLGAGNAFDCCRAESTLDNFGNYQSYSIWGTDKATADLTVFLVSGIYYPIRLFYVNRDNNAVLDFSFSTEFNKEIIHDFTSYFFSASDEEQCPGNI
glycan array binding signal (z-score) [1]: 0.623 | glycan array binding signal (z-score) [2]: 0.638 | glycan array binding signal (z-score) [3]: 0.83 | glycan array binding signal (z-score) [4]: 0.277 | glycan array binding signal (z-score) [5]: 1.9 | glycan array binding signal (z-score) [6]: 1 | glycan array binding signal (z-score) [7]: 0.038 | glycan array binding signal (z-score) [8]: 1.04 | glycan array binding signal (z-score) [9]: -0.206 | glycan array binding signal (z-score) [10]: 0.046 | glycan array binding signal (z-score) [11]: 0.491 | glycan array binding signal (z-score) [12]: 0.839 | glycan array binding signal (z-score) [13]: 1.19 | glycan array binding signal (z-score) [14]: 1.15 | glycan array binding signal (z-score) [15]: -0.534 | glycan array binding signal (z-score) [16]: -1.02 | glycan array binding signal (z-score) [17]: 0.236 | glycan array binding signal (z-score) [18]: -0.537 | glycan array binding signal (z-score) [19]: 0.074 | glycan array binding signal (z-score) [20]: -0.6 | glycan array binding signal (z-score) [21]: -0.26 | glycan array binding signal (z-score) [22]: 0.529 | glycan array binding signal (z-score) [23]: -0.22 | glycan array binding signal (z-score) [24]: 0.017 | glycan array binding signal (z-score) [25]: -0.072 | glycan array binding signal (z-score) [26]: -0.769 | glycan array binding signal (z-score) [27]: 0.895 | glycan array binding signal (z-score) [28]: -0.198 | glycan array binding signal (z-score) [29]: 0.793 | glycan array binding signal (z-score) [30]: 2.25 | glycan array binding signal (z-score) [31]: -0.787 | glycan array binding signal (z-score) [32]: 0.103 | glycan array binding signal (z-score) [33]: -0.501 | glycan array binding signal (z-score) [34]: 0.545 | glycan array binding signal (z-score) [35]: 0.369 | glycan array binding signal (z-score) [36]: 0.007 | glycan array binding signal (z-score) [37]: 0.263 | glycan array binding signal (z-score) [38]: -0.608
